Measured values published in paper PMC10983073.
No constants are given. Whether binding was seen depends on the method and setting. Some results given as binding are weak or reduced against the parent protein; the word gives no strength.

The chains behind the UniProt entries cited, without tags or fusion partners. Residues count along the entry.
UniProt Q969D9, residues 29-159: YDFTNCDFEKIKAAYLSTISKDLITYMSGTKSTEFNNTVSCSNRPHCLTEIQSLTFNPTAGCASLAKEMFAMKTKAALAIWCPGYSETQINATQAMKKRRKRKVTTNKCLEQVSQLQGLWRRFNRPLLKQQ

Target: TSLP-hFc fusion protein (human) (UniProt Q969D9)
Experiment: ELISA; blocking assay: plates coated with 1.5 μg/ml TSLP-hFc in PBS 16 hr at 4 °C; 1 μg/ml TSLPR-mFc added without or with increasing concentrations of antibody, room temperature, 2 hr; both purified

binding: binds
B1: TSLPR-mFc protein (Fc fusion, UniProt Q9HC73 23-231)
chain: QGGAAEGVQIQIIYFNLETVQVTWNASKYSRTNLTFHYRFNGDEAYDQCTNYLLQEGHTSGCLLDAEQRDDILYFSIRNGTHPVFTASRWMVYYLKPSSPKHVRFSWHQDAVTVTCSDLSYGDLLYEVQYRSPFDTEWQSKQENTCNVTIEGLDAEKCYSFWVRVKAMEDVYGPDTYPSDWSEVTCWQRGEIRDACAETPTPPKPKLSK
